According to PubChem BioAssay AID1347075 (National Center for Advancing Translational Sciences (NCATS), 2019):
Several values for one entry are separate records, joined by “and”; a condition that tells them apart may be missing. Equal entries are not always repeated. In all, about 400,000 compounds went through this assay and about 5,500 (1.4%) were called active. The shares of active, inactive and inconclusive entries below differ from those in the screen. Calls follow the shape of the dose curve; as a rule, active = well fitted cell-killing curve with a large enough effect; inconclusive = small, poorly fitted or top-dose-only effect, or effect the other way; inactive = flat fitted curve, though single readings scatter. Potencies beside an inconclusive call are fits to weak or partial responses and may not hold up.

Experiment: qHTS assay for MDR1-selective chemotherapeutics: Primary screen using the parental adenocarcinoma cell KB-3-1; also: nearly all actives have a fitted effect of over 60% in size
Details: KB-3-1 viability, CellTiter-Glo ATP luminescence, 72 h; activity change, negative = cytotoxic: at 46.1 µM (top of the series)
Method in brief: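 Here the drug-naive KB-3-1 line serves as comparator for MDR sub-line selectivity; cells received compound titrations, 72 h at 37 °C, then CellTiter-Glo readout.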
% is scaled to controls: 0 for no effect and ±100 for the full control effect; potency is read from the fitted curve at half-maximal effect.

Row | SMILES | Potency | activity change, negative = cytotoxic
1 | COc1ccc(Oc2cn[nH]c2-c2ccc(O)cc2O)cc1 | inconclusive: 23.1 µM [cytotoxic, single point] | 
2 | COc1ccccc1-n1c(SCC(=O)NCC2CCCO2)nc2c([nH]c3ccccc32)c1=O (stereo not given) |  | inactive: 11.6%
3 | CC1(C(=O)NS(=O)(=O)c2cccc(OC(F)F)c2)CCN1C(=O)c1cccc(F)c1 (stereo not given) |  | inactive: 0%
4 | C=CCN(CC=C)S(=O)(=O)c1ccc(NC(=S)NC(=O)c2ccco2)cc1 | inconclusive: 29.1 µM [cytotoxic, single point] | 
5 | CCCc1cc2c(cc1NC(=O)c1ccccc1F)OCO2 |  | inactive: -4.4%
6 | S=C(NCc1ccc2[nH]c3c(c2c1)CCCC3)Nc1ccccc1Cl | inconclusive: 29.1 µM [cytotoxic, single point] | 
7 | Cc1ccc(-n2ncc3c(N(C)Cc4ccccc4)ncnc32)cc1 | inconclusive: 29.1 µM [cytotoxic, single point] | 
8 | Cc1cc(S(=O)(=O)N(Cc2ccc(C(C)(C)C)cc2)Cc2cccs2)ccc1-n1cnnn1 | inconclusive: 29.1 µM [cytotoxic, single point] | 
9 | Nc1nc(SCc2ccc(Cl)cc2Cl)c2ncn(C3OC(CO)C(O)C3O)c2n1 (stereo not given) | inconclusive: 29.1 µM [rising, single point] | 
10 | CCc1ccccc1NC(=S)N(Cc1ccc(OC)cc1)CC1CCC(C(=O)O)CC1 (stereo not given) |  | inactive: -0.814%
11 | Cc1cc(NC(=O)c2cccs2)n(-c2nc3ccccc3[nH]2)n1 | inconclusive: 29.1 µM [cytotoxic, single point] | 
12 | COc1ccc(-c2nc(Cn3c(=O)cc(-c4ccccc4)c4c(C)nn(C)c43)c(C)o2)cc1OC | inconclusive: 23.1 µM [cytotoxic, partial curve] | 
13 | O=C(c1cccc(S(=O)(=O)NCc2ccccc2)c1)N1CCN(c2ccccc2Cl)CC1 | inconclusive: 25.9 µM [cytotoxic, partial curve, poor fit] | 
14 | CC1=C(/C=C/C(C)=C/C=C/C(C)=C/C(=O)Nc2ccc(O)cc2)C(C)(C)CCC1 | inconclusive: 29.1 µM [cytotoxic, single point] | 
15 | N#CC1C(=N)Cc2ccccc2-c2ccccc21 (stereo not given) | inconclusive: 16.4 µM [cytotoxic, single point] | 
16 | CCn1c2ccc(C)cc2c2nnc(SCCN3CCOCC3)nc21 | inconclusive: 14.6 µM [rising, partial curve, poor fit] | 
17 | Nc1[nH]n2c(=O)c3c(nc2c1N=Nc1ccc(Cl)cc1)CCCC3 | inconclusive: 29.1 µM [cytotoxic, single point] | 
18 | COc1ccc(C2CC(=O)C=C3c4ccc(OC)cc4CCC32)cc1 (stereo not given) |  | inconclusive: -13.3%
19 | Cc1occc1-c1nnc(SCC(=O)Nc2ccccc2)n1C(C)c1ccccc1 (stereo not given) | inconclusive: 35.5 µM [cytotoxic, single point] | 
20 | CS(=O)(=O)C1=NSC2=NC(=O)/C(=C\c3cccn3-c3ccccc3Cl)C(=N)N21 |  | inconclusive: -4.44%
21 | CCNc1nc(NC(C)(C)C)nc(Oc2ccc(=O)n(-c3ccccc3)n2)n1 | inactive | 
22 | CCc1ccccc1N1CC(c2nc3ccccc3n2CCOc2ccc(Cl)c(C)c2)CC1=O (stereo not given) | inconclusive: 29.1 µM [cytotoxic, single point] | 

Four records drawn at random from those above, as already listed:
Row | SMILES | Potency | activity change, negative = cytotoxic
13 | O=C(c1cccc(S(=O)(=O)NCc2ccccc2)c1)N1CCN(c2ccccc2Cl)CC1 | inconclusive: 25.9 µM [cytotoxic, partial curve, poor fit] | 
22 | CCc1ccccc1N1CC(c2nc3ccccc3n2CCOc2ccc(Cl)c(C)c2)CC1=O (stereo not given) | inconclusive: 29.1 µM [cytotoxic, single point] | 
16 | CCn1c2ccc(C)cc2c2nnc(SCCN3CCOCC3)nc21 | inconclusive: 14.6 µM [rising, partial curve, poor fit] | 
3 | CC1(C(=O)NS(=O)(=O)c2cccc(OC(F)F)c2)CCN1C(=O)c1cccc(F)c1 (stereo not given) |  | inactive: 0%

Following part.

Row | SMILES | Potency | activity change, negative = cytotoxic
23 | O=C(NCCn1cc(SCc2ccccc2)c2ccccc21)c1cccs1 | inconclusive: 20.6 µM [cytotoxic, single point] | 
24 | CCCC(NCC(O)COc1ccc(-c2ccccc2)cc1)c1ccccc1 (stereo not given) | inconclusive: 20.6 µM [cytotoxic, partial curve, poor fit] | 
25 | O=C1CCCN1c1ccc(S(=O)(=O)Oc2cccc(Cl)c2)cc1[N+](=O)[O-] | inconclusive: 25.9 µM [cytotoxic, single point] | 
26 | COC1=CC(=O)OC(c2cccc(C#N)c2)C1 (stereo not given) |  | inactive: -0.92%
27 | C[C@@H]1CN([C@H](C)CO)C(=O)CCCn2cc(nn2)CO[C@H]1CN(C)C(=O)Nc1ccc2c(c1)OCCO2 | inconclusive: 0.0103 µM [rising, full curve, poor fit] | 
28 | COc1ccccc1CNC(=O)CCCCn1c(=O)c2ccccc2n(Cc2ccccc2C)c1=O | inconclusive: 20.6 µM [cytotoxic, single point] | 
29 | CCOC(=O)c1cc2c(=O)n3ccccc3nc2n(CCOC)c1=NC(=O)c1cc2ccccc2o1 | inconclusive: 0.164 µM [rising, full curve] | 
30 | CC(NC(=O)c1cnn2c1NC(=C1CC1)C=C2C(F)F)c1ccncc1 (stereo not given) | inconclusive: 7.31 µM [cytotoxic, partial curve] | 
31 | CN1C(=O)N(c2ccc(Cl)cc2)C(C)(O)CC1(C)C (stereo not given) |  | inconclusive: 2.74%
32 | O=C(NCc1ccc(Cl)cc1)N1CCN(Cc2ccccc2)CC1 | inconclusive: 20.6 µM [cytotoxic, single point] | 
33 | O=C(N/N=C/c1cc([N+](=O)[O-])cc(Br)c1O)C12CC3CCC(CC(C3)C1)C2 | inconclusive: 23.1 µM [cytotoxic, single point] | 
34 | CC(=O)c1c(C)n(C)c2ccc(OC(=O)c3ccc([N+](=O)[O-])cc3)cc12 | inconclusive: 29.1 µM [rising, single point] | 
35 | COc1ccc(-c2cn(Cc3ccc(C(=O)c4ccccc4)cc3)nn2)cc1 | active: 4.11 µM and inconclusive: 25.9 µM [cytotoxic, partial curve, poor fit] | 
36 | COc1cccc(/C=N/n2c(SC)nnc2-c2ccccc2)c1O | inconclusive: 29.1 µM [cytotoxic, single point] | 
37 | Cc1ccc(/C=C/C(=O)c2c(C)cc(C)[nH]c2=O)cc1 | inconclusive: 35.5 µM [cytotoxic, single point] | 
38 | COCCn1c(SCC(=O)Nc2ncc(Cl)c(C)c2Cl)nc2ccccc21 | inconclusive: 29.1 µM [cytotoxic, single point] | 
39 | c1ccc(CC2CCN(Cc3ccccn3)CC2)cc1 |  | inactive: 11.5%
40 | O=C(NCc1ccccc1Cl)C1CCCN(C(=O)c2cnn(-c3ccc(F)cc3)c2-n2cccc2)C1 (stereo not given) | inconclusive: 18.4 µM [cytotoxic, single point] | 
41 | NC(=O)c1c(NC(=O)C2CCCO2)sc2c1CCCCC2 (stereo not given) | inconclusive: 29.1 µM [rising, single point] | 
42 | COc1cc(NC(=O)CC2NCCNC2=O)cc(OC)c1 (stereo not given) |  | inactive: -1.38%
43 | Cn1c(C(=O)Nc2ccc3c(c2)OCO3)cc2sccc21 |  | inactive: 13.6%
44 | C#CCOCCOCCOCCNc1nc(N2CCN(C(=O)CCCCCCCCCCNC(=O)[C@H]([C@@H](C)CC)n3cc(CCCCN=C(N)N)nn3)CC2)nc(N2CCN(C(=O)CCCCCCCCCCNC(=O)[C@H](CO)n3cc(CCCCCN)nn3)CC2)n1 | inconclusive: 29.1 µM [cytotoxic, single point] | 

Row | SMILES | Potency | activity change, negative = cytotoxic
45 | CC1(C)N(O)CC(c2cccs2)=[N+]1[O-] | inconclusive: 20.6 µM [cytotoxic, single point] | 
46 | Cc1ccc(C(=O)CC(=O)c2ccccc2)cc1 |  | inactive: -2.53%
47 | CC(Oc1ccc(-c2ccccc2)c(F)c1)c1ccn(S(=O)(=O)c2ccc(Cl)cc2)n1 (stereo not given) | inconclusive: 29.1 µM [cytotoxic, single point] | 
48 | Cc1cc(/C=N/NC(N)=S)c(C)n1-c1ccc(Cl)cc1 |  | inactive: -2.78%
49 | O=C(NCc1cccnc1)C1CCN(c2ccc(S(=O)(=O)N3CCOCC3)cc2Cl)CC1 | active: 23.1 µM | 
50 | C=CCN(CC=C)S(=O)(=O)c1ccc(C(=O)Nc2sc3c(c2C(N)=O)CCCCC3)cc1 | inconclusive: 23.1 µM [cytotoxic, single point] | 
51 | Cc1ccccc1C(=O)N/N=C/c1ccccn1 | inconclusive: 29.1 µM [cytotoxic, single point] | 
52 | COc1ccc(NC(=O)CN(C)CC(=O)N(C)C2(C#N)CCC(C)CC2)cc1 (stereo not given) |  | inactive: 12.1%
53 | COc1cc(C2C=C(C34CC5CC(CC(C5)C3)C4)NC(=S)N2)cc(OC)c1OC (stereo not given) | inconclusive: 20.6 µM [cytotoxic, partial curve, poor fit] | 
54 | Cc1cc(O)c(Oc2cc(C)cc(O)c2O)c(O)c1 |  | inactive: -1.39%
55 | CCOC(=O)Cn1c(S(=O)(=O)Cc2cccc(F)c2)nc(-c2ccccc2)c1-c1ccccc1 |  | inactive: -17.7%
56 | COc1ccc(CN(C)C(=O)[C@H]2O[C@@H](n3cnc4c(N)ncnc43)[C@H](O)[C@@H]2O)cc1OC |  | inactive: 0.0302%
57 | Cc1ccc(-c2nc3ncccc3o2)cc1NC(=O)C(C)C |  | inactive: 24.7%
58 | COc1ccc(C(=O)N2CCN(c3ccc([N+](=O)[O-])c(NCCc4ccc(OC)c(OC)c4)c3)CC2)cc1 | inconclusive: 0.82 µM [cytotoxic, full curve, poor fit] | 
59 | Cc1cc(O)c(C(=O)/C=C/c2ccccc2)c(=O)o1 | inconclusive: 20.6 µM [cytotoxic, single point] | 
60 | CN(C)c1cc[n+](CC(=O)Nc2ccc([N+](=O)[O-])cc2Cl)cc1 | inconclusive: 29.1 µM [cytotoxic, single point] | 
61 | CCOC(=O)Cn1c(S(=O)(=O)Cc2ccc(Cl)cc2)nc(-c2ccccc2)c1-c1ccccc1 | inconclusive: 14.6 µM [cytotoxic, partial curve] | 
62 | CC(NC(=O)CN1C(=O)NC2(CCCC2)C1=O)c1ccc(Cl)cc1Cl (stereo not given) |  | inconclusive: -12.5%
63 | c1ccc(C2Nc3ccccc3-c3nc4ccccc4n32)cc1 (stereo not given) | inconclusive: 20.6 µM [cytotoxic, partial curve] | 
64 | CC1CCc2nc3ccccc3c(C(=O)OCC(=O)N3CCc4ccccc43)c2C1 (stereo not given) | inconclusive: 23.1 µM [cytotoxic, partial curve, poor fit] | 
65 | CN(C(=O)COC(=O)/C=C/c1cccc([N+](=O)[O-])c1)C1CCS(=O)(=O)C1 (stereo not given) | inconclusive: 29.1 µM [cytotoxic, single point] | 
